Results taken from patent US20230192785A1, “JNK3 INHIBITORY PEPTIDES” (UNIVERSITA' DEGLI STUDI DI MILANO, priority 2020, published 2023).
“Also recorded” adds a separate entry of the source. At least one peptide structure holds a part that was inferred or is arguable (an end, a ring closure or a residue). Ends that are not written are not given here.

The chains behind the UniProt entries cited, without tags or fusion partners. Where a name states a change or a piece, a line headed by the entry shows the natural chain unless it says otherwise.
UniProt P53779, whole entry, species assumed: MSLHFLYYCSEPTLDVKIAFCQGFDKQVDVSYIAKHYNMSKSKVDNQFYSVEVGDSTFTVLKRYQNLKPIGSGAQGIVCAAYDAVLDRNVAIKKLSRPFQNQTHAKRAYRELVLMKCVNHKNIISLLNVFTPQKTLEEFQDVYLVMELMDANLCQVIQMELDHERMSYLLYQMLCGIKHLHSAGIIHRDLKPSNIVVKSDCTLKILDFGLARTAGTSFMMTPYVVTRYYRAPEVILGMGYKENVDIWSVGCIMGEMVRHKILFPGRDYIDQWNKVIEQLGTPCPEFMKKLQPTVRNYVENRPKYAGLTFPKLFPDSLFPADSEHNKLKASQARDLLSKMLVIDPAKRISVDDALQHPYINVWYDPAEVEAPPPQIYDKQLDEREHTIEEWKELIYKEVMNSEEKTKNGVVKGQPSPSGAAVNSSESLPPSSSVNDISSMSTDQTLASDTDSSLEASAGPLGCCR
UniProt Q61831: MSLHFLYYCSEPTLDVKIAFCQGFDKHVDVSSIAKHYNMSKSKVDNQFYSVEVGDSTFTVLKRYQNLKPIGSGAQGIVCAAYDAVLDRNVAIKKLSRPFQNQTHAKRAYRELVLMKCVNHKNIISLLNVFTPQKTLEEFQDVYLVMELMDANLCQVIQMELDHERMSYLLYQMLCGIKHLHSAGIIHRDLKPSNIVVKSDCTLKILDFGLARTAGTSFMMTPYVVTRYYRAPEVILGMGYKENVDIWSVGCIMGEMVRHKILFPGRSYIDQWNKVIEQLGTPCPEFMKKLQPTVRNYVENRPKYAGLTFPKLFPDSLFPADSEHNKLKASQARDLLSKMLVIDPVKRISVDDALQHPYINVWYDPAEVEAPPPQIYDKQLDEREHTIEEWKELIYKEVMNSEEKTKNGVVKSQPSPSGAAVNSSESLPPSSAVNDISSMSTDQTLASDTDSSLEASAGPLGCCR

Key:
[1] = tested on: caspase-3; assay: Cleaved caspase-3 in TIF fraction of TgCRND8 mice; type: in vivo, mouse; conditions: FIG. 8
[2] = tested on: TgCRND8 mice; assay: APP and Tau phosphorylation in cortex and hippocampus of TgCRND8 mice (Western blot); type: in vivo, mouse; conditions: TgCRND8 mice 9 months old
[3] = target: JNK3 (Homo sapiens, UniProt P53779); assay: Alpha Screen Kinase Assay, cell-free JNK3 activity; type: biochemical; conditions: cell-free AlphaScreen, FIG. 3B
Description: FIG. 3: A) Cell-free assay of JNK1 activity in the presence of peptides according to the invention.
To evaluate the specificity of the four peptides described above for JNK3, the Alpha Screen Kinase Assay was performed, following the experimental method described for the cell-free assays. Briefly, this AlphaScreen assay is used to measure the ability of the JNK kinase to phosphorylate its targets. The kinase reaction was performed under the following buffer conditions of the assay: 20 mM Tris / HCl (pH 7.4), 10 mM MgCl2, 1 mM DTT, 100 µM Na3VO4 and 0.01% Tween-20. Compounds (final concentration 5 µg / mL, 1% DMSO) or the control vehicle (final concentration 1% DMSO) were diluted in the assay buffer and mixed with JNK kinase (final concentration 5 nM). After an incubation time of 15 minutes at room temperature, biotinylated substrate, 6 nM final and ATP, 1 µM final diluted in assay buffer were added, followed by incubation of the dishes for 2 hours at room temperature. […] After an overnight incubation, the dosage was measured using the AlphaQuest reader. […]

[4] = tested on: cortical neurons exposed to Aβ oligomers; assay: MTT test, protection of cortical neurons exposed to Aβ oligomers; type: cell-based, mouse; conditions: 1 µM Aβ oligomers for 24 hours; SIMBA2 0.25-0.5 µM 30 minutes before, FIG. 5
[5] = target: T1, JNK3 and β-arrestin-2 (Mus musculus, UniProt Q61831); assay: Co-immunoprecipitation of JNK3-β-arrestin-2 in Tg5XFAD mice; type: in vivo; conditions: single 22 mg/kg dose, brain hemisphere homogenate, FIG. 12
T1 construct: the total homogenate of one cerebral hemisphere was incubated overnight at 4° C. with 1 µg of anti-JNK3 or anti-HA antibodies; from tissue; host or cells: brain (one cerebral hemisphere) of Tg5XFAD mice

[6] = tested on: Tg5XFAD mice; assay: JNK and APP phosphorylation in TIF fraction of Tg5XFAD mice; type: in vivo, mouse; conditions: Tg5XFAD mice 3 months old, single injection 22 mg/kg, 24 hours after administration, FIG. 11
[7] = tested on: TgCRND8 mice; assay: PSD region biomarkers in TIF fraction of TgCRND8 mice (synaptopathy); type: in vivo, mouse
[8] = tested on: P-APP / APP and P-c-Jun / c-Jun ratios in cortical neurons; assay: Western blot of APP (T668) and c-Jun phosphorylation in cortical neurons; type: cell-based, mouse; conditions: 0.25-0.5 µM
[9] = tested on: mice with traumatic brain injury; assay: Traumatic Brain Injury (TBI) model, acute treatment; type: in vivo, mouse; conditions: 22 mg/kg 10 minutes after trauma, 48 hours
[10] = TgCRND8 mice, acute treatment, 22 mg/kg

SDRSLHLEANEKGENVNVHVTKTRADKSKIKVSVRQYADINEKGEAQYKCPVAQLE [SIMBA2]
activation of caspase-3 (cleaved caspase-3 levels) [1]: blocks the activation of caspase-3
APP and Tau phosphorylation ([2]; single I.P. injection 5.5 mg/kg): unable to prevent APP and Tau phosphorylation
p-APP and p-Tau levels in cortex and hippocampus ([2]; single I.P. injection 22 mg/kg, FIG. 6): effective in reducing p-APP and p-Tau levels
inhibition of JNK3 activity on p-c-Jun [3]: inhibit the activity of JNK3 on p-c-Jun in a concentration-dependent manner
protective effect against soluble Aβ oligomers (neuronal death, MTT) [4]: protective effect; also recorded: completely eliminated Aβ toxicity in vitro at doses lower than the doses required by D-JNKI1
interaction between JNK3 and β-arrestin-2 (immunoprecipitation) [5]: prevent the interaction between JNK3 and β-arrestin-2
JNK phosphorylation and APP phosphorylation [6]: restored levels of phosphorylation at the levels observed in the control
PSD composition (NR2A, NR2, GluR1, GluR2, PSD-95, Drebrin) vs untreated mice ([7]; TgCRND8 mice 9 months, 5.5 mg/kg, TIF fraction): no significant differences in PSD composition
biomarkers of the PSD active region (NR2A, NR2B, GluR1, GluR2, PSD-95, Drebrin) ([7]; TgCRND8 mice 9 months, single injection 22 mg/kg, TIF fraction, FIG. 7): significant increase
protection: change in the decrease in biomarker levels of the PSD region, Drebrin [7, 10]: 100%
protection: change in the decrease in biomarker levels of the PSD region, GluR1 [7, 10]: 100%
protection: change in the decrease in biomarker levels of the PSD region, GluR2 [7, 10]: 100%
protection: change in the decrease in biomarker levels of the PSD region, NR2A [7, 10]: 100%
protection: change in the decrease in biomarker levels of the PSD region, NR2B [7, 10]: 100%
protection: change in the decrease in biomarker levels of the PSD region, PSD-95 [7, 10]: 100%
P-APP / APP ratio (T668) ([8]; FIG. 4B): significantly reduce
P-c-Jun / c-Jun ratio ([8]; FIG. 4C): significantly reduce
trauma damage in TIF fraction ([9]; contralateral region, FIG. 13B): able to restore the values observed in the animal not exposed to the trauma
phosphorylation of JNK and APP, total homogenate of cortex ([9]; ipsilateral region, FIG. 13A): effectively counteracts the damage induced by trauma
